Data on one substance can be found in publication PMC9343251.

Amino acid sequences for entries named in this document (tags omitted).
UniProt P19634: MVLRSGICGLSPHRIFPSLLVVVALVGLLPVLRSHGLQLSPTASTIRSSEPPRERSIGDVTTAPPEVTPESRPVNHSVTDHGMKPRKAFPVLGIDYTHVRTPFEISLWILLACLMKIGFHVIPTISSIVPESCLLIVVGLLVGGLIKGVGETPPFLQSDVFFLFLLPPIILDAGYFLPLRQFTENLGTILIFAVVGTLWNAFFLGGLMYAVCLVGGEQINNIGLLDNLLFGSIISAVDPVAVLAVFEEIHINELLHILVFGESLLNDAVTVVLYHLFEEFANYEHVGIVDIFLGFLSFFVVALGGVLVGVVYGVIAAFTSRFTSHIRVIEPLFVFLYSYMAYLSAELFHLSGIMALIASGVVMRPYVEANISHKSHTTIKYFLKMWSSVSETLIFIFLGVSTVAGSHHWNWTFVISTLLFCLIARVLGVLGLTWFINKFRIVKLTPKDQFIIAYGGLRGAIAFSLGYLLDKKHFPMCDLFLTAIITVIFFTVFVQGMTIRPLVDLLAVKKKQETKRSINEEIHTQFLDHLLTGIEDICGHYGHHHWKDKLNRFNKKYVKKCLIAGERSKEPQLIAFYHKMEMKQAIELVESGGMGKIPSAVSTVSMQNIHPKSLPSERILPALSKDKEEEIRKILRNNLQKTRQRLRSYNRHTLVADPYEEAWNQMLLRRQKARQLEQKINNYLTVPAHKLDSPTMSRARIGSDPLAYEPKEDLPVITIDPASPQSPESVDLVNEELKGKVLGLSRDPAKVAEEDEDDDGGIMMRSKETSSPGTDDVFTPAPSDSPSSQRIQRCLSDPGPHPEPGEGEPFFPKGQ
UniProt Q06187: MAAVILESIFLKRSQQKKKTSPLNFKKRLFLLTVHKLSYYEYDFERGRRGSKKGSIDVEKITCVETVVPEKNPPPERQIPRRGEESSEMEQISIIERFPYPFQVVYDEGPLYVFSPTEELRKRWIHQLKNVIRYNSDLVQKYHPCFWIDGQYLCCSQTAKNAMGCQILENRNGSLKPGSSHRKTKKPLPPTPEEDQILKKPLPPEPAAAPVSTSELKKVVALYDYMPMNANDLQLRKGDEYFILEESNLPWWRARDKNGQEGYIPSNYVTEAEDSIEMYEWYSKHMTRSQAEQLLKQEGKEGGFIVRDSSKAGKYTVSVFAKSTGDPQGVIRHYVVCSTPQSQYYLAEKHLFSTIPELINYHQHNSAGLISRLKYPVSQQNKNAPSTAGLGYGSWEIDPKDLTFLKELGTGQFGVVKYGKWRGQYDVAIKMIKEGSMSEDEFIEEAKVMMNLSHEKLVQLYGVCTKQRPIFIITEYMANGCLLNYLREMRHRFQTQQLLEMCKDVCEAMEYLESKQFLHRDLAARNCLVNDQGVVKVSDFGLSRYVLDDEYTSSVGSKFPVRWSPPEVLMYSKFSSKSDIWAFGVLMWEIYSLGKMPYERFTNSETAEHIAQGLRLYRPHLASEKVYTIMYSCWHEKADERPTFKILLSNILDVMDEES

These are yes or no findings as the source states them, for the method shown. Binding seen in cells or lysates may run through a third protein. Some results given as binding are weak or reduced against the parent protein; the word gives no strength.

This test deals with sodium/hydrogen exchanger (NHE1) (human (endogenous in MV4-11)) (UniProt P19634). The experiment in a line: co-IP; MV4-11 lysate in NP-40-based lysis buffer with protease and phosphatase inhibitors; 500 ug total protein with 2 ug anti-NHE1 or anti-FLT3 antibody at 4 °C overnight; Protein G sepharose 2 hours at 4 °C; western blot. Background: Immunoblotting shows a protein as a band on a membrane.

Take “BTK (from UniProt Q06187 1-659) (enzyme)”: the binding entry is on record as “binds”.
